Measurements as given in patent publication US11806343B2, “Inhibitors of DUX4 induction for regulation of muscle function” (Sonic Master Limited, priority 2017, dated 2023).
pEC50: −log10 of the molar value.

Tested on: DUX4
Experiment: DUX4 expression downregulation by kinase family inhibitors (Table 1)
Type: cell-based
Conditions: DUX4 reduction

pEC50: 6.42
SMILES: Cc1ccc(NC(=O)c2ccc(CN3CCN(C)CC3)cc2)cc1Nc1nccc(-c2cccnc2)n1 [Imatinib]
